According to patent publication US6900245B2, “Pharmaceutical composition comprising crystalline sibutramine methanesulfonate hemihydrate” (priority 2002, dated 2005):
Some entries share one result that the patent states for a list of compounds. At least one compound was matched to its structure with a doubt left.

Test: Exposure of anhydrous enantiomer salts to room temperature, 75% relative humidity
Format: physicochemical
Source text: Further, anhydrous (+)- and (−)-sibutramine methanesulfonate were each placed for 1 day at room temperature under 75% relative humidity.

Q: Which time to melting does the source give for `CC(C)CC(N(C)C)C1(c2ccc(Cl)cc2)CCC1.CS(=O)(=O)O` (single isomer, unassigned; (+)) [(+)-sibutramine methanesulfonate] here?
A: ≤ 2 h
